Values from PubChem BioAssay AID504804 (Drosophila RNAi Screening Center, 2011)
The deposit covers about 19,000 reagents; this is an unselected part of those that have a named target and a result. In the full data, 47 (0.25%) got an active call. 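Signals are raw, not normalised; exact z-scores behind calls not deposited; actives needed confirmation, so some wells reaching 2 SD are inactive.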 Unmarked entries are inactive. Names joined by + are all predicted targets of the reagent. No sequences are given here.

Assay: 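dsRNAs that improve Kc cell survival under doxorubicin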 (primary screen)
Cell system: Drosophila Kc cells
Reagent: long dsRNA against Drosophila genes, 0.5 µg dsRNA per well
Time to read-out: 96 h (48 h knock-down, then 48 h drug)
Treatment: doxorubicin 5 µg/ml for 48 h, added 48 h after dsRNA
Detection: 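Luminescent ATP counts per replicate, not normalised, reflecting viable cells after 48 h dsRNA knock-down followed by 48 h of 5 µg/ml doxorubicin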
Direction: raw ATP luminescence: higher = more viable cells, protection from doxorubicin
Rule for the call: 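Active when both duplicate wells lie at least 2 SD above the plate mean and protection is confirmed by rescreening and independent dsRNAs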

Msr-110 [DRSC11227]: raw ATP luminescence, replicate 1 = 47923; raw ATP luminescence, replicate 2 = 54977
CG33116 [DRSC02045]: raw ATP luminescence, replicate 1 = 89517; raw ATP luminescence, replicate 2 = 82210
sqd (squid) [DRSC15160]: raw ATP luminescence, replicate 1 = 1.08e5; raw ATP luminescence, replicate 2 = 94730
sqd (squid) [DRSC17066]: raw ATP luminescence, replicate 1 = 1.37e5; raw ATP luminescence, replicate 2 = 1.83e5
CG12885 [DRSC14572]: raw ATP luminescence, replicate 1 = 29900; raw ATP luminescence, replicate 2 = 38670
CG13384 [DRSC02258]: raw ATP luminescence, replicate 1 = 1.58e5; raw ATP luminescence, replicate 2 = 82633
CG14252 [DRSC14747]: raw ATP luminescence, replicate 1 = 57990; raw ATP luminescence, replicate 2 = 40910
Pgant8 (Polypeptide N-Acetylgalactosaminyltransferase 8) [DRSC10801]: raw ATP luminescence, replicate 1 = 64070; raw ATP luminescence, replicate 2 = 57717
Met (Methoprene-tolerant) [DRSC20284]: raw ATP luminescence, replicate 1 = 3.48e5; raw ATP luminescence, replicate 2 = 3.09e5
CG1927 [DRSC08146]: raw ATP luminescence, replicate 1 = 50070; raw ATP luminescence, replicate 2 = 54763
CG32266 [DRSC08062]: raw ATP luminescence, replicate 1 = 1.57e5; raw ATP luminescence, replicate 2 = 1.69e5
pio (piopio) [DRSC04386]: raw ATP luminescence, replicate 1 = 88990; raw ATP luminescence, replicate 2 = 67437
noc (no ocelli) [DRSC03580]: raw ATP luminescence, replicate 1 = 1.18e5; raw ATP luminescence, replicate 2 = 70737
CG9717 [DRSC16543]: raw ATP luminescence, replicate 1 = 54970; raw ATP luminescence, replicate 2 = 37840
CG3021 [DRSC18165]: raw ATP luminescence, replicate 1 = 41300; raw ATP luminescence, replicate 2 = 41220
CG3021 [DRSC18652]: raw ATP luminescence, replicate 1 = 36540; raw ATP luminescence, replicate 2 = 54350
Act79B (Actin 79B) [DRSC11604]: raw ATP luminescence, replicate 1 = 67760; raw ATP luminescence, replicate 2 = 66903
Rab2 [DRSC05017]: raw ATP luminescence, replicate 1 = 72237; raw ATP luminescence, replicate 2 = 57097
insc (inscuteable) [DRSC04695]: raw ATP luminescence, replicate 1 = 50317; raw ATP luminescence, replicate 2 = 45137
CG5402 [DRSC15792]: raw ATP luminescence, replicate 1 = 37470; raw ATP luminescence, replicate 2 = 55750
PolA2 (DNA polymerase alpha subunit 2) [DRSC16641]: raw ATP luminescence, replicate 1 = 59200; raw ATP luminescence, replicate 2 = 59360
wake (wide awake) [DRSC16148]: raw ATP luminescence, replicate 1 = 47830; raw ATP luminescence, replicate 2 = 54560
wake (wide awake) [DRSC16149]: raw ATP luminescence, replicate 1 = 63440; raw ATP luminescence, replicate 2 = 76820
MP1 (Melanization Protease 1) [DRSC12124]: raw ATP luminescence, replicate 1 = 24693; raw ATP luminescence, replicate 2 = 27567
CG18278 + CG30059 [DRSC05418]: raw ATP luminescence, replicate 1 = 71833; raw ATP luminescence, replicate 2 = 94270
lov (jim lovell) [DRSC04279]: raw ATP luminescence, replicate 1 = 36163; raw ATP luminescence, replicate 2 = 49650
lov (jim lovell) [DRSC04665]: raw ATP luminescence, replicate 1 = 47650; raw ATP luminescence, replicate 2 = 54050
Pu (Punch) [DRSC04645]: raw ATP luminescence, replicate 1 = 66230; raw ATP luminescence, replicate 2 = 60533

Look-ups from the entries so far.
Msr-110 [DRSC11227], raw ATP luminescence, replicate 2: 54977
For “raw ATP luminescence, replicate 2”, CG33116 [DRSC02045] is entered as 82210
